{"source": "patent US8021652B2", "about": "“Biodegradable branched polylactide derivatives capable of forming polymeric micelles, and their preparation method and use” (Samyang Corporation, priority 2003, dated 2011)", "origin": "cited, not measured here", "conditions": "drug alone in water, without polymer"}
{"smiles": "CC(=O)O[C@H]1C(=O)[C@@]2(C)[C@H]([C@H](OC(=O)c3ccccc3)[C@]3(O)C[C@H](OC(=O)[C@H](O)[C@@H](NC(=O)c4ccccc4)c4ccccc4)C(C)=C1C3(C)C)[C@]1(OC(C)=O)CO[C@@H]1C[C@@H]2O", "note": "[paclitaxcel]", "values": [{"measurement": "Water solubility", "result": "≤ 10", "unit": "µg/mL"}]}
